PubChem BioAssay AID504808, Drosophila RNAi Screening Center | 2011

Aim: 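Chromatin factors that keep E2F targets switched off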 (primary screen)
Cells: Drosophila S2 cells
Reagents: long dsRNA against Drosophila genes
Measured: 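Dual luciferase plate measurements; E2F-specific signal taken as firefly over Renilla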
Reading the numbers: E2F firefly: higher = more E2F reporter activity; Renilla normaliser: higher = more normaliser reporter signal
Active means: 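a knock-down counted as active when the firefly/Renilla E2F signal rose above 50%, a threshold chosen arbitrarily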
The screen tested about 21,000 reagents; below is an unselected part of those with a known target gene and a result. Of all reagents, 18 (0.084%) were called active. 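Raw counts without plate normalisation, one of two replicates; the ratio scores behind the calls were not deposited.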 Unmarked entries are inactive. The numbers tell different reagents against one gene apart. A plus sign joins genes that one reagent is predicted to hit. Reagent sequences are not shown. The record does not give: the amount of reagent, the time to read-out.

Target gene | dsRNA no. | E2F firefly, rep 1 | Renilla normaliser, rep 1
ddbt | 1 | 1.21e5 | 3891
CG6142 | 1 | 1.11e5 | 6649
Ype | 1 | 8295 | 808
CG31267 | 1 | 1.09e5 | 5390
CG31019 | 1 | 84383 | 2415
CG8323 | 1 | 97361 | 4064
CG14606 | 1 | 1.37e5 | 6330
NANS | 1 | 1.64e5 | 6465
CG32354 | 1 | 76825 | 3535
CG32354 | 2 | 93404 | 3772
AstC-R2 | 1 | 1.69e5 | 9682
CG10918 | 1 | 1.30e5 | 6344
RhoGAP1A | 1 | 1.39e5 | 6246
RhoGAP1A | 2 | 1.35e5 | 6182
CG15641 | 1 | 1.36e5 | 5833
CG14406 | 1 | 1.52e5 | 6481
gfzf | 1 | 1.16e5 (active) | 170
l(1)G0320 | 1 | 7491 | 800
Cp15 | 1 | 95618 | 3994
Atac3 | 1 | 99063 | 4335
BaraA1 + BaraA2 | 1 | 1.34e5 | 5013
endos | 1 | 75329 | 18
Elys | 1 | 1.32e5 | 5403
CCAP | 1 | 1.03e5 | 5352
CG15812 | 1 | 94096 | 3698
CG12268 | 1 | 1.13e5 | 6292
RpL7 | 1 | 99190 | 174
Nup98-96 | 1 | 58996 | 2883
Nup98-96 | 2 | 61538 | 4840
Acp63F | 1 | 95617 | 4132
CG31365 | 1 | 69236 | 3190
Elp3 | 1 | 1.41e5 | 5073
CG8673 | 1 | 1.40e5 | 4580
Dop1R1 | 1 | 88775 | 2590
Dop1R1 | 2 | 1.28e5 | 4540
Non1 | 1 | 2399 | 226
Tsp42Eb + CG30160 | 1 | 1.43e5 | 5426
Tsp42Eb + CG30160 | 2 | 1.43e5 | 4956
Rpt4R | 1 | 1.20e5 | 7137
CG4619 | 1 | 87319 | 4006
Osi17 | 1 | 1.08e5 | 4957
CG14667 | 1 | 1.34e5 | 6378
CG11180 | 1 | 69707 | 3107
kek3 | 1 | 1.10e5 | 4771
kn | 1 | 1.39e5 | 4990
kn | 2 | 1.35e5 | 4691
kn | 3 | 92875 | 4157
kn | 4 | 1.01e5 | 4332
CG32686 | 1 | 93202 | 2949
SMC1 | 1 | 1.09e5 | 4927
Rhau | 1 | 86809 | 3814
CG14417 | 1 | 1.27e5 | 5929
Pkc53E | 1 | 1.79e5 | 5862
Pkc53E | 2 | 69115 | 3971
rdog | 1 | 1879 | 856
Ilp4 | 1 | 1.16e5 | 6287
CG4570 | 1 | 1.57e5 | 6845
CG14868 | 1 | 46542 | 3772
CG10433 | 1 | 77771 | 3119
lmgA + lmgB | 1 | 1.47e5 | 5183
Agpat2 | 1 | 70105 | 3096
CG4325 | 1 | 59199 | 4295
CG1607 | 1 | 1870 | 848
CG13794 | 1 | 1.60e5 | 4932
Spn88Ea | 1 | 1.09e5 | 5506
Rm62 | 1 | 54414 | 3496
Wnk | 1 | 1.04e5 | 4771
Rheb | 1 | 71402 | 3356
CG4408 | 1 | 69463 | 2497
mAcon2 | 1 | 1.40e5 | 6184
RpL26 | 1 | 62429 | 11589
CG5021 | 1 | 92383 | 3830
Skadu | 1 | 1.30e5 | 6125
CG18335 | 1 | 93128 | 3650
CG15394 | 1 | 1.64e5 | 5684
CG43773 | 1 | 1.64e5 | 5623
CG43773 | 2 | 1.47e5 | 4921
CG6432 | 1 | 56648 | 3354
CG34015 | 1 | 84015 | 2626
CG7970 | 1 | 72552 | 4125
CG17470 | 1 | 84398 | 3578
CG31419 | 1 | 1.12e5 | 6258
Swip-1 | 1 | 90549 | 3778
Swip-1 | 2 | 97352 | 4188

An excerpt of the results above, as a working copy:
Target gene | dsRNA no. | E2F firefly, rep 1 | Renilla normaliser, rep 1
CG10918 | 1 | 1.30e5 | 6344
RhoGAP1A | 1 | 1.39e5 | 6246
RhoGAP1A | 2 | 1.35e5 | 6182
CG15641 | 1 | 1.36e5 | 5833
CG14406 | 1 | 1.52e5 | 6481
gfzf | 1 | 1.16e5 (active) | 170
l(1)G0320 | 1 | 7491 | 800
Cp15 | 1 | 95618 | 3994
Atac3 | 1 | 99063 | 4335
BaraA1 + BaraA2 | 1 | 1.34e5 | 5013
endos | 1 | 75329 | 18
Elys | 1 | 1.32e5 | 5403
CCAP | 1 | 1.03e5 | 5352
